Experimental data as given in article doi:10.1101/2020.01.17.910125.
These are yes or no findings as the source states them, for the method shown. Binding seen in cells or lysates may run through a third protein. Some binding calls cover weakened binding; strength is not graded here.

Chains of the proteins cited; added tags and fusions are not shown.
UniProt P19474: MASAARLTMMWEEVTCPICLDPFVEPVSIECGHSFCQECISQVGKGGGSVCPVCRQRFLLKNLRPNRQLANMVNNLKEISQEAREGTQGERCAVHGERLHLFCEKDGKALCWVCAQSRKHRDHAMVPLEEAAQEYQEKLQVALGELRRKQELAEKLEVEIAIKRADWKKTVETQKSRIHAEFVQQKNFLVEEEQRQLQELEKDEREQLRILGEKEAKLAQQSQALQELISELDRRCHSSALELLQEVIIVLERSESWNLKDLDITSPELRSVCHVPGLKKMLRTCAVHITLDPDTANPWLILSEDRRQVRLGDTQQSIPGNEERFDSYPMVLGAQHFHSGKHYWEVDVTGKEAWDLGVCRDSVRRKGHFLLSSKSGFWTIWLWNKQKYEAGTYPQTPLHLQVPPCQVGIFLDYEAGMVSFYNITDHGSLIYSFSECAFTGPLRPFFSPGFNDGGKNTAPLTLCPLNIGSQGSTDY
UniProt Q15717: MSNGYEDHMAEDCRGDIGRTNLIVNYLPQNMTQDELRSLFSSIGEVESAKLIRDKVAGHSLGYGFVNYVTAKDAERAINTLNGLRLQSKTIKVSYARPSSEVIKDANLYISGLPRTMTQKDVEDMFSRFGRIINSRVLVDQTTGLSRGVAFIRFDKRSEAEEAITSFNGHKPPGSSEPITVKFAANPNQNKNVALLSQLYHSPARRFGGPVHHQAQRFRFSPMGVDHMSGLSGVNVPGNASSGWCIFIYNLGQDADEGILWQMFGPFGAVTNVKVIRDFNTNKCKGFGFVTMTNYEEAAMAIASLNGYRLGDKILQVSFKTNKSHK

Biological target: Trim21 (human (endogenous in HepG2)) (UniProt P19474)
Experiment: proximity ligation

binding: binds
Substance: Hur (from UniProt Q15717 1-326)
